From patent US20140045211A1
These are yes or no findings as the source states them, for the method shown. Some binding calls cover weakened binding; strength is not graded here. Tags and fused reporters may be left off the sequences shown.

How the values were obtained:
[1] = target: T1, Detergent-solubilized CCR1 (UniProt P32246); assay: chemokine affinity column; elution with 1 M NaCl; anti-CCR1 western blot
T1 sequence (looked up): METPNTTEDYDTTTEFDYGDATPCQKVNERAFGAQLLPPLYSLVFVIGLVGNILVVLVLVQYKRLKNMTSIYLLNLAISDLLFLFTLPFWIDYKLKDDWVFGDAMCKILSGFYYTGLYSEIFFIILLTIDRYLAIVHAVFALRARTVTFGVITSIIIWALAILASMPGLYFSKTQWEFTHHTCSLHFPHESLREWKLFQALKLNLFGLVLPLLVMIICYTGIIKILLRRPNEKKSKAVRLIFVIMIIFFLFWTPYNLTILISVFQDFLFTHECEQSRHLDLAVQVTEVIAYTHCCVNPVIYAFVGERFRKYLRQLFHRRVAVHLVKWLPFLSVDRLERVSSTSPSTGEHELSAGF

[2] = target: T1, Detergent-solubilized CCR1; assay: chemokine affinity column; anti-CCR1 western blot of load, flow-through, wash and eluates

- binding [1]: binds
- binding [2]: binds
B1: Biotinylated CCL14 (CCL14 9-74 with C-terminal Avitag), immobilized on streptavidin agarose (ligand)
chain: GPYHPSECCFTYTTYKIPRQRIMDYYETNSQCSKPGIVFITKRGHSVCTNPSDKWVQDYIKDMKENKLGSGLNDIFEAQKIEWHE
modifications: biotin on the single specific lysine of the Avitag (BirA)
